# In the supplement of paper PMC8728848:
# This is one part of the list.
# B1: FGF1 (Homo sapiens), P05230 (protein)
# chain: MAEGEITTFTALTEKFNLPPGNYKKPKLLYSNGGHFLRILPDGTVDGTRDRSDQHIQLQLSAESVGEVYIKSTETGQYLAMTDGLLYGSQTPNEECLFLERLEENHYNTYISKHAEKNWFVGLKKNGSCKRGPRTHYGQAILFLPLPASSED
# Columns and labels:
# Experiment in all cases: glycan array binding signal (z-score within array); higher = stronger binding
# Details in all cases: glycan notation: IUPAC condensed, linker removed
# [1] = target: Fuc(a1-2)Gal
# In short: (§1)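 The binding signal is a Z-score computed within each array and averaged over linkers. Arrays of the same protein sequence at different concentrations or buffers were also averaged together. Data originate from 3228 arrays in the Consortium for Functional Glycomics database, kept only where the protein sequence was available.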
# [2] = target: Fuc(a1-2)Gal(b1-3)GalNAc
# In short: as §1
# [3] = target: Fuc(a1-2)Gal(b1-3)GalNAc(a1-3)[Fuc(a1-2)]Gal(b1-4)Glc
# In short: as §1
# [4] = target: Fuc(a1-2)Gal(b1-3)GalNAc(a1-3)[Fuc(a1-2)]Gal(b1-4)GlcNAc
# In short: as §1
# [5] = target: Fuc(a1-2)Gal(b1-3)GalNAc(b1-3)Gal
# In short: as §1
# [6] = target: Fuc(a1-2)Gal(b1-3)GalNAc(b1-3)Gal(a1-4)Gal(b1-4)Glc
# In short: as §1
# [7] = target: Fuc(a1-2)Gal(b1-3)GalNAc(b1-4)[Neu5Ac(a2-3)]Gal(b1-4)Glc
# In short: as §1
# [8] = target: Fuc(a1-2)Gal(b1-3)GlcNAc
# In short: as §1
# [9] = target: Fuc(a1-2)Gal(b1-3)GlcNAc(b1-2)Man(a1-3)[Fuc(a1-2)Gal(b1-3)GlcNAc(b1-2)Man(a1-6)]Man(b1-4)GlcNAc(b1-4)GlcNAc
# In short: as §1
# [10] = target: Fuc(a1-2)Gal(b1-3)GlcNAc(b1-2)Man(a1-3)[Fuc(a1-2)Gal(b1-3)GlcNAc(b1-2)Man(a1-6)]Man(b1-4)GlcNAc(b1-4)[Fuc(a1-6)]GlcNAc
# In short: as §1
# [11] = target: Fuc(a1-2)Gal(b1-3)GlcNAc(b1-3)Gal(b1-4)Glc
# In short: as §1
# [12] = target: Fuc(a1-2)Gal(b1-3)GlcNAc(b1-3)GalNAc
# In short: as §1
# [13] = target: Fuc(a1-2)Gal(b1-3)GlcNAc(b1-3)[Fuc(a1-2)Gal(b1-3)GlcNAc(b1-6)]GalNAc
# In short: as §1
# [14] = target: Fuc(a1-2)Gal(b1-3)GlcNAc(b1-3)[Gal(b1-4)GlcNAc(b1-6)]Gal(b1-4)Glc
# In short: as §1
# [15] = target: Fuc(a1-2)Gal(b1-3)GlcNAc(b1-3)[Neu5Ac(a2-6)Gal(b1-4)GlcNAc(b1-6)]Gal(b1-4)Glc
# In short: as §1
# [16] = target: Fuc(a1-2)Gal(b1-3)GlcNAc6S
# In short: as §1
# [17] = target: Fuc(a1-2)Gal(b1-3)[Fuc(a1-4)]GlcNAc
# In short: as §1
# [18] = target: Fuc(a1-2)Gal(b1-3)[Fuc(a1-4)]GlcNAc(b1-2)Man(a1-3)[Fuc(a1-2)Gal(b1-3)[Fuc(a1-4)]GlcNAc(b1-2)Man(a1-3)]Man(b1-4)GlcNAc(b1-4)GlcNAc
# In short: as §1
# [19] = target: Fuc(a1-2)Gal(b1-3)[Fuc(a1-4)]GlcNAc(b1-2)Man(a1-3)[Fuc(a1-2)Gal(b1-3)[Fuc(a1-4)]GlcNAc(b1-2)Man(a1-6)]Man(b1-4)GlcNAc(b1-4)[Fuc(a1-6)]GlcNAc(b1-4)[Fuc(a1-6)]GlcNAc
# In short: as §1
# [20] = target: Fuc(a1-2)Gal(b1-3)[Fuc(a1-4)]GlcNAc(b1-3)[Fuc(a1-3)[Gal(b1-4)]GlcNAc(b1-6)]Gal(b1-4)Glc
# In short: as §1
# [21] = target: Fuc(a1-2)Gal(b1-3)[Fuc(a1-4)]GlcNAc(b1-3)[Gal(b1-4)GlcNAc(b1-6)]Gal(b1-4)Glc
# In short: as §1
# [22] = target: Fuc(a1-2)Gal(b1-4)Fuc(a1-3)]GlcNAc(b1-2)Man(a1-3)[Fuc(a1-2)Gal(b1-4)[Fuc(a1-3)]GlcNAc(b1-2)Man(a1-6)]Man(b1-4)GlcNAc(b1-4)GlcNAc
# In short: as §1
# [23] = target: Fuc(a1-2)Gal(b1-4)Glc
# In short: as §1
# [24] = target: Fuc(a1-2)Gal(b1-4)Glc6S
# In short: as §1
# [25] = target: Fuc(a1-2)Gal(b1-4)GlcNAc
# In short: as §1
# [26] = target: Fuc(a1-2)Gal(b1-4)GlcNAc(b1-2)Man
# In short: as §1
# [27] = target: Fuc(a1-2)Gal(b1-4)GlcNAc(b1-2)Man(a1-3)[Fuc(a1-2)Gal(b1-4)GlcNAc(b1-2)Man(a1-6)]Man(b1-4)GlcNAc(b1-4)GlcNAc
# In short: as §1
# [28] = target: Fuc(a1-2)Gal(b1-4)GlcNAc(b1-2)Man(a1-3)[Fuc(a1-2)Gal(b1-4)GlcNAc(b1-2)Man(a1-6)]Man(b1-4)GlcNAc(b1-4)[Fuc(a1-6)]GlcNAc
# In short: as §1
# [29] = target: Fuc(a1-2)Gal(b1-4)GlcNAc(b1-2)[Fuc(a1-2)Gal(b1-4)GlcNAc(b1-4)]Man(a1-3)[Fuc(a1-2)Gal(b1-4)GlcNAc(b1-2)Man(a1-6)]Man(b1-4)GlcNAc(b1-4)GlcNAc
# In short: as §1
# [30] = target: Fuc(a1-2)Gal(b1-4)GlcNAc(b1-3)Gal(b1-4)GlcNAc
# In short: as §1
binder,measurement,setting,value
B1,glycan array binding signal (z-score),[1],-0.095
same,glycan array binding signal (z-score),[2],-0.596
same,glycan array binding signal (z-score),[3],-0.681
same,glycan array binding signal (z-score),[4],-0.671
same,glycan array binding signal (z-score),[5],-0.809
same,glycan array binding signal (z-score),[6],-0.003
same,glycan array binding signal (z-score),[7],-0.534
same,glycan array binding signal (z-score),[8],-0.252
same,glycan array binding signal (z-score),[9],1.63
same,glycan array binding signal (z-score),[10],0.366
same,glycan array binding signal (z-score),[11],-0.425
same,glycan array binding signal (z-score),[12],-0.037
same,glycan array binding signal (z-score),[13],0.161
same,glycan array binding signal (z-score),[14],-0.844
same,glycan array binding signal (z-score),[15],-0.799
same,glycan array binding signal (z-score),[16],0.132
same,glycan array binding signal (z-score),[17],-0.779
same,glycan array binding signal (z-score),[18],2.84
same,glycan array binding signal (z-score),[19],0.036
same,glycan array binding signal (z-score),[20],-0.831
same,glycan array binding signal (z-score),[21],-0.819
same,glycan array binding signal (z-score),[22],1.55
same,glycan array binding signal (z-score),[23],-0.358
same,glycan array binding signal (z-score),[24],0.286
same,glycan array binding signal (z-score),[25],-0.395
same,glycan array binding signal (z-score),[26],0.825
same,glycan array binding signal (z-score),[27],0.241
same,glycan array binding signal (z-score),[28],0.646
same,glycan array binding signal (z-score),[29],0.062
same,glycan array binding signal (z-score),[30],-0.767

# 2 successive records out of the list so far, for reference:
binder,measurement,setting,value
B1,glycan array binding signal (z-score),[25],-0.395
same,glycan array binding signal (z-score),[26],0.825
